Source: patent US20180258181A1
No constants are given. Whether binding was seen depends on the method and setting. Some entries that bind do so weakly or less than the wild type.

The chains behind the UniProt entries cited, without tags or fusion partners. Where a name states a change or a piece, a line headed by the entry shows the natural chain unless it says otherwise.
UniProt Q13421: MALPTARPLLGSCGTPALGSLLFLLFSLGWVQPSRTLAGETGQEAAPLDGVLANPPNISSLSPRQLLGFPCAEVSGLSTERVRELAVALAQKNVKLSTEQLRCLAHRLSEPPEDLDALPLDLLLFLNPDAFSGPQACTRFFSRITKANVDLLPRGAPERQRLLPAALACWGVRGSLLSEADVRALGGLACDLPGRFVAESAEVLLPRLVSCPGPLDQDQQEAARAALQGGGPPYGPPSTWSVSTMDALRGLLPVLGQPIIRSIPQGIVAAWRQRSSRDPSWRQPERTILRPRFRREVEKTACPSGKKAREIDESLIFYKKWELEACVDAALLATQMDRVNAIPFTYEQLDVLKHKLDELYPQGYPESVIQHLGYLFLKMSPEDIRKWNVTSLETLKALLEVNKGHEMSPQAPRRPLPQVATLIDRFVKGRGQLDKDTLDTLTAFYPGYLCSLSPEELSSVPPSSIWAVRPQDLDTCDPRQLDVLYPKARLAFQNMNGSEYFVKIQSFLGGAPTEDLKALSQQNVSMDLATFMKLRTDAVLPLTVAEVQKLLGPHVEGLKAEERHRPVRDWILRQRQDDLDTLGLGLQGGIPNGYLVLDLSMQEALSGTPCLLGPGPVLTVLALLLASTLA

Legend:
[1] = target: recombinant, deglycosylated mesothelin (Homo sapiens (Human)) (UniProt Q13421); test: immunoblot
[2] = target: mesothelin on CHO-A9 cells (CHO-K1 stably transfected with the GPI-anchored C-terminal part of mesothelin) (Homo sapiens (Human)) (UniProt Q13421); test: immunoblot of cell extract, denaturing and reducing SDS-PAGE
[3] = target: recombinant, deglycosylated mesothelin (Homo sapiens (Human)) (UniProt Q13421); test: immunoblot of recombinant deglycosylated mesothelin, SDS-PAGE denaturing and reducing, MF-J-IgG as primary antibody, ECL
[4] = target: mesothelin on CHO-A9 cells (CHO-K1 stably transfected with the GPI-anchored C-terminal part of mesothelin) (Homo sapiens (Human)) (UniProt Q13421); test: immunoblot of CHO-A9 cell extract, SDS-PAGE denaturing and reducing, MF-J-IgG as primary antibody, ECL
[5] = target: mesothelin on CHO-A9 cells (CHO-K1 stably transfected with the GPI-anchored C-terminal part of mesothelin) (Homo sapiens (Human)) (UniProt Q13421); test: 125I-labelled antibody bound to CHO-A9 cells with second antibody, kept at 0 °C; supernatant, acid wash and pellet counted
[6] = target: mesothelin on CHO-A9 cells (CHO-K1 stably transfected with the GPI-anchored C-terminal part of mesothelin) (Homo sapiens (Human)) (UniProt Q13421); test: 125I-labelled antibody (1 ug/ml) bound to CHO-A9 cells at 0 °C with second antibody, then 37 °C; supernatant, acid wash and pellet counted

Measured: binding

B1: MF-J IgG (antibody, V domains shown)
VH: QVELVQSGAEVKKPGESLKISCKGSGYSFTNYWIGWVRQMPGKGLEWMGVIMPSDSYTRYSPSFQGQVTISADKSISTAYLQWSSLKASDTAMYYCARYGHGMYGGALDVWGQGTLVTVSS
VL: DIVLTQSPATLSLSPGERATLSCRASQSVRSSRLAWYQQKPGQAPRLLIYGASKRATGVPARFSGSGSGTDFTLTISSLEPEDFATYYCQQYYDFPPTFGQGTKVEIKR
binds: [1] | [2] | [3] | [4]

B2: MF-226 IgG (antibody, V domains shown)
VH: QVELVQSGAEVKKPGASVKVSCKASGYTFTGNYINWVRQAPGQGLEWMGIINPHGGDTKYAQKFQGRVTMTRDTSISTAYMELSSLRSEDTAVYYCARWHHGTWIFDYWGQGTLVTVSS
VL: DIVLTQPPSVSGAPGQRVTISCSGSSSNIGSNYVSWYQQLPGTAPKLLIYNDNQRPSGVPDRFSGSKSGTSASLAITGLQSEDEADYYCSTYDRRTFSVFGGGTKLTVLG
binds: [5] | [6]
